Assay results as given in patent publication US10292960B2, “Anticancer agent comprising aminoacetonitrile compound as active ingredient” (PITNEY PHARMACEUTICALS PTY LIMITED, priority 2013, dated 2019).
Some results were stated once for a whole list of compounds, not compound by compound. At least one compound was matched to its structure with a doubt left.

How the values were obtained:
[1] = tested on: human oophoroma cell line (OVCAR-3); assay: OVCAR-3 cell growth inhibitory activity test; assay type: cell-based; details: 30 μM test substance, cultured 72 hr, Alamar Blue
[2] = tested on: human neuroepithelioma cell line (SK-N-MC); assay: SK-N-MC cell growth inhibitory activity test; assay type: cell-based; details: 30 μM test substance, cultured 72 hr, Alamar Blue

Structure (SMILES) | cell growth inhibitory effect (inhibition ratio) against OVCAR-3 [1] | cell growth inhibitory effect (inhibition ratio) against SK-N-MC [2]
Cn1cc(C(=O)NC(C)(C#N)COc2cc(C#N)ccc2C(F)(F)F)c(C(F)(F)F)n1 (centres unmarked) [5-28] | not less than 50% | not less than 50%
Cc1ncsc1C(=O)NC(C)(C#N)COc1cc(C#N)ccc1C(F)(F)F (racemic) [1-67] | – | not less than 50%
COc1c(C)nn(C)c1C(=O)NC(C)(C#N)COc1ccc(SC(F)(F)F)cc1 (centres unmarked) [5-78] | – | not less than 50%
CC(C#N)(COc1cccc(SC(F)(F)F)c1)NC(=O)c1nccnc1C(F)(F)F (racemic) [1-90] | – | not less than 50%
COC(=O)Nc1ccc(OCC(C)(C#N)NC(=O)Cc2ccc(SC(F)(F)F)cc2)cc1 (centres unmarked) [5-131] | not less than 50% | not less than 50%
CC(C#N)(COc1ccc(OCC=C(Cl)Cl)cc1)NC(=O)Cc1ccc(Cl)cc1 (centres unmarked) [2-102] | not less than 50% | –
Cc1nn(C)c(C(=O)NC(C)(C#N)COc2cc(C#N)ccc2C(F)(F)F)c1C (centres unmarked) [5-58] | not less than 50% | –
COc1c(C)nn(C)c1C(=O)NC(C)(C#N)COc1ccccc1Cl (centres unmarked) [5-77] | – | not less than 50%
Cc1nn(C)c(C(=O)NC(C)(C#N)COc2ccccc2Cl)c1C (centres unmarked) [5-59] | – | not less than 50%
CC(C#N)(COc1ccc(C#Cc2cccnc2)cc1)NC(=O)c1ccc(SC(F)(F)F)cc1 (centres unmarked) [5-146] | not less than 50% | not less than 50%
CC(C#N)(COc1cc(C#N)ccc1-c1ccccc1)NC(=O)Cc1ccc(SC(F)(F)F)cc1 (centres unmarked) [2-139] | not less than 50% | not less than 50%
Cn1nc(C(=O)NC(C)(C#N)COc2cc(C#N)ccc2C(F)(F)F)c2cccnc21 (centres unmarked) [6-82] | not less than 50% | not less than 50%
CCCC(C#N)(COc1ccc(Cl)cc1)NC(=O)Cc1ccccc1Cl (centres unmarked) [2-75] | not less than 50% | –
CC(C#N)(COc1ccc(C#Cc2ccccn2)cc1)NC(=O)c1ccc(SC(F)(F)F)cc1 (centres unmarked) [5-145] | not less than 50% | –
Cc1nn(C)c(C(=O)NC(C)(C#N)COc2ccc(SC(F)(F)F)cc2)c1Cl (centres unmarked) [5-54] | not less than 50% | not less than 50%
CC(C#N)(COc1ccc(SC(F)(F)C(F)(F)C(F)(F)C(F)(F)C(F)(F)C(F)(F)F)cc1)NC(=O)Cc1ccc(C(F)(F)F)cc1 (centres unmarked) [2-106] | not less than 50% | –
CC(C)Oc1c(C(=O)NC(C)(C#N)COc2ccc(SC(F)(F)F)cc2)cnn1C (centres unmarked) [5-42] | not less than 50% | –
CC(C#N)(COc1ccc(C(F)(F)F)cc1)NC(=O)c1cc(C(F)(F)F)[nH]n1 (racemic) [1-51] | – | not less than 50%
CCOc1ncccc1C(=O)NC(C)(C#N)COc1cc(C#N)ccc1C(F)(F)F (centres unmarked) [5-7] | not less than 50% | –
Cn1nc(C(F)(F)F)cc1C(=O)NC(C)(C#N)COc1ccc(Cl)cc1 (racemic) [1-39] | – | not less than 50%
CC(C)C(C#N)(COc1ccc(Cl)cc1)NC(=O)Cc1ccccc1Cl (centres unmarked) [2-26] | not less than 50% | –

Structure (SMILES) | cell growth inhibitory effect (inhibition ratio) against OVCAR-3 [1] | cell growth inhibitory effect (inhibition ratio) against SK-N-MC [2]
COc1cc(C(=O)NC(C)(C#N)COc2ccccc2Cl)n(C)n1 (centres unmarked) [5-71] | – | not less than 50%
CC(C#N)(CSc1ccc(F)cc1)NC(=O)c1ccc(SC(F)(F)F)cc1 (centres unmarked) [5-157] | not less than 50% | –
CC(C#N)(COc1ccc(C(F)(F)F)cc1)NC(=O)c1ccc([N+](=O)[O-])cc1 (racemic) [1-33] | – | not less than 50%
COc1c(C)nn(C)c1C(=O)NC(C)(C#N)COc1cc(C#N)ccc1C(F)(F)F (centres unmarked) [5-76] | not less than 50% | –
CC(C#N)(COc1ccc(C(F)(F)F)cc1)NC(=O)c1cccc(OC(F)(F)F)c1 (racemic) [1-29] | – | not less than 50%
CC(C)C(C#N)(COc1ccc(Cl)cc1)NC(=O)Cc1cccc(Cl)c1 (centres unmarked) [2-27] | not less than 50% | –
CN1CCOc2cc(C(=O)NC(C)(C#N)COc3cc(C#N)ccc3C(F)(F)F)cnc21 (centres unmarked) [6-76] | not less than 50% | –
CC(C#N)(COc1ccc(Cl)cc1)NC(=O)Cc1cccc(Cl)c1 (centres unmarked) [2-3] | not less than 50% | –
CC(C#N)(COc1ccc(SC(F)(F)F)cc1)NC(=O)c1cnc(Nc2ccccc2)nc1 (centres unmarked) [6-15] | not less than 50% | –
Cc1nc(-c2ccc(Cl)cc2)sc1C(=O)NC(C)(C#N)COc1cc(C#N)ccc1C(F)(F)F (centres unmarked) [6-28] | not less than 50% | –
Cc1nc(C(F)(F)F)c(C(=O)NC(C)(C#N)COc2cc(C#N)ccc2C(F)(F)F)s1 (centres unmarked) [6-19] | not less than 50% | –
CCOc1ncccc1C(=O)NC(C)(C#N)COc1ccccc1Cl (centres unmarked) [5-8] | – | not less than 50%
CC(C#N)(COc1cc(C#N)ccc1C(F)(F)F)NC(=O)c1ccccc1SC(F)(F)F (centres unmarked) [5-140] | not less than 50% | –
Cc1nn(C)c(Cl)c1C(=O)NC(C)(C#N)COc1ccc(SC(F)(F)F)cc1 (centres unmarked) [5-51] | – | not less than 50%
CC(C#N)(COc1cc(C#N)ccc1C(F)(F)F)NC(=O)Cc1ncc(C(F)(F)F)cc1Cl (centres unmarked) [2-128] | not less than 50% | –
CC(C#N)(COc1cc(C#N)ccc1C(F)(F)F)NC(=O)c1nnc(C(F)(F)F)s1 (racemic) [1-69] | – | not less than 50%
Cc1nc(NC(=O)OC(C)(C)C)sc1C(=O)NC(C)(C#N)COc1ccccc1Cl (centres unmarked) [6-50] | not less than 50% | –
Cc1cc(C(=O)NC(C)(C#N)COc2ccccc2Cl)n(C)n1 (centres unmarked) [5-56] | – | not less than 50%
Cc1nc(C)c(C(=O)NC(C)(C#N)COc2ccc(SC(F)(F)F)cc2)s1 (centres unmarked) [6-18] | – | not less than 50%
Cn1nc(C(F)(F)F)cc1C(=O)NC(C)(C#N)COc1ccc(C(F)(F)F)cc1 (racemic) [1-40] | – | not less than 50%
Cc1ccc(C(=O)NC(C)(C#N)COc2cc(C#N)ccc2C(F)(F)F)s1 (centres unmarked) [6-94] | – | not less than 50%

Structure (SMILES) | cell growth inhibitory effect (inhibition ratio) against OVCAR-3 [1] | cell growth inhibitory effect (inhibition ratio) against SK-N-MC [2]
CC(C#N)(COc1ccccc1SC(F)(F)F)NC(=O)c1nccnc1C(F)(F)F (racemic) [1-87] | – | not less than 50%
CC(C#N)(COc1ccc(C(F)(F)F)cc1)NC(=O)c1ccc(SC(F)(F)F)cc1 (racemic) [1-23] | not less than 50% | –
COc1cscc1C(=O)NC(C)(C#N)COc1cc(C#N)ccc1C(F)(F)F (centres unmarked) [6-106] | – | not less than 50%
CC(C#N)(COc1ccc(C(F)(F)F)cc1)NC(=O)c1ccc(C(F)(F)F)cc1F (racemic) [1-54] | – | not less than 50%
CC(C#N)(COc1ccc(C(F)(F)F)cc1)NC(=O)c1cc(C(C)(C)C)c(O)c(C(C)(C)C)c1 (racemic) [1-17] | not less than 50% | –
CCOc1ncccc1C(=O)NC(C)(C#N)COc1ccc(SC(F)(F)F)cc1 (centres unmarked) [5-9] | – | not less than 50%
CC(C#N)(COc1ccc(SC(F)(F)C(F)(F)C(F)(F)C(F)(F)C(F)(F)C(F)(F)F)cc1)NC(=O)Cc1ccc(Cl)cc1 (centres unmarked) [2-105] | not less than 50% | –
CC(C#N)(COc1ccc(SC(F)(F)C(F)(F)C(F)(F)F)cc1)NC(=O)Cc1ccc(Cl)cc1 (centres unmarked) [2-104] | not less than 50% | –
CC(C)c1cc(C(=O)NC(C)(C#N)COc2ccccc2Cl)n(C)n1 (centres unmarked) [5-62] | – | not less than 50%
CC(C#N)(COc1ccc(C#Cc2ccccn2)cc1)NC(=O)Cc1ccc(SC(F)(F)F)cc1 (centres unmarked) [5-148] | not less than 50% | –
Cn1nc(C(F)(F)F)c(C(=O)NC(C)(C#N)COc2ccc(SC(F)(F)F)cc2)c1Oc1ccccc1 (centres unmarked) [5-48] | not less than 50% | –
Cn1nc(-c2ccccc2)cc1C(=O)NC(C)(C#N)COc1cc(C#N)ccc1C(F)(F)F (centres unmarked) [5-67] | – | not less than 50%
Cc1cc(C(=O)NC(C)(C#N)COc2ccc(SC(F)(F)F)cc2)n(C)n1 (centres unmarked) [5-57] | – | not less than 50%
CC(C#N)(COc1ccc(-c2ccccc2)cc1)NC(=O)c1ccc(C(F)(F)F)cc1 (racemic) [1-73] | – | not less than 50%
CC(C#N)(COc1ccc(C(F)(F)F)cc1)NC(=O)c1cc(Cl)nc(Cl)c1 (racemic) [1-47] | – | not less than 50%
Cn1nc(C2CC2)cc1C(=O)NC(C)(C#N)COc1cc(C#N)ccc1C(F)(F)F (centres unmarked) [5-64] | – | not less than 50%
CC(C#N)(COc1cc(C#N)ccc1C(F)(F)F)NC(=O)c1cccc(C(F)(F)F)c1 (centres unmarked) [5-143] | – | not less than 50%
C#CCN(C(=O)Cc1ccc(Cl)cc1)C(C)(C#N)COc1ccc(Cl)cc1 (centres unmarked) [2-101] | not less than 50% | –
CC(C#N)(COc1cc(C#N)ccc1C(F)(F)F)NC(=O)c1cnc(Nc2ccccc2)nc1 (centres unmarked) [6-13] | – | not less than 50%
Cc1cc(C(=O)NC(C)(C#N)COc2ccc(SC(F)(F)F)cc2)nn1C (centres unmarked) [5-90] | – | not less than 50%
